Reference: article PMC8519427
Results are given in words; binding and its absence hold for the method and conditions named. For some assays here: Binding calls can cover weak binding; strength is not graded here. Tags and fused reporters may be left off the sequences shown.

Key:
Assay in all cases: pull-down; MBP- or GST-tagged Stim1 or Orai1 fragments immobilised on amylose or glutathione resin, incubated with 20–50 nM α-SNAP in Ringer's buffer with 0.1% NP-40 and 2 mM imidazole, 1 hr at 4°C; washed thrice; Western blot for α-SNAP; both purified
MBP-Orai1 1–47 (human) = target: MBP-Orai1 1–47 (human)
[1] = target: MBP-tagged Orai1 1–103 (human)
[2] = target: MBP-Orai1 272–292 (human)
MBP-Orai1 48–103 (human) = target: MBP-Orai1 48–103 (human)
[3] = target: MBP-Orai1 245–272 (human)

B1: human α-SNAP with an Avitag and a C-terminal 6xHis tag (protein, UniProt P54920 1-295)
chain: MDNSGKEAEAMALLAEAERKVKNSQSFFSGLFGGSSKIEEACEIYARAANMFKMAKNWSAAGNAFCQAAQLHLQLQSKHDAATCFVDAGNAFKKADPQEAINCLMRAIEIYTDMGRFTIAAKHHISIAEIYETELVDIEKAIAHYEQSADYYKGEESNSSANKCLLKVAGYAALLEQYQKAIDIYEQVGTNAMDSPLLKYSAKDYFFKAALCHFCIDMLNAKLAVQKYEELFPAFSDSRECKLMKKLLEAHEEQNVDSYTESVKEYDSISRLDQWLTTMLLRIKKTIQGDEEDLR
modifications: biotin (in vitro biotinylated using BirA ligase; Avitag)
binding (MBP-Orai1 1–47 (human)): no binding (tested: 20–50 nM of α-SNAP)
binding [1]: binds
binding [2]: no binding (tested: 20–50 nM of α-SNAP)
binding (MBP-Orai1 48–103 (human)): binds
binding [3]: binds
